# Data as given in patent US20250136937A1, “NOVEL TUMOR-SPECIFIC ANTIGENS FOR COLORECTAL CANCER AND USES THEREOF” (UNIVERSITÉ DE MONTRÉAL, priority 2021, published 2025).
# For part of these data: What was measured is the transcript of the gene that encodes the chain shown.
# Key:
# Design in all cases: species or system human
# [1] = test system: healthy tissues (GTEx) and mTECs; experiment: Quantification of MAP coding sequences in RNA-Seq data of normal tissues (GTEx, mTEC), RPHM
# Text: Quantification of MAP coding sequences in RNA-Seq data. MAP coding sequences (MCSs) were quantified in RNA-seq data as previously described (31). Briefly, MCSs were reverse translated into all possible nucleotide sequences with an in-house python script (deposited on Zenodo at DOI: 3739257). The nucleotide sequences were then mapped onto the genome with GSNAP (32) to determine all possible genomic locations able to code for a given MAP. MCSs were also mapped onto the transcriptome to account for MAPs overlapping splice sites, and portions of the transcriptome corresponding to these MAPs were then also mapped onto the reference genome with GSNAP. For MAPs of interest, genomic alignment of all reads containing the MCS was performed. […] The number of reads containing the MCSs at their respective genomic locations in each desired RNA-Seq sample (such as CRC and NAT, GTEx, or TCGA samples), aligned on the reference genome with STAR, was summed. Lastly, all read counts for a given MAP were summed and normalized on the total number of reads sequenced in each sample of interest to obtain a reads-per-hundred-million (RPHM) count.
# Identification of TSA candidates. […] The number of reads fully overlapping a given peptide-coding sequence was estimated using the k-mer set's minimum occurrence (kmin), as in general, one k-mer always originates from a single RNA-Seq read. […]
# [2] = test system: NAT and CRC tissue samples; experiment: Relative quantification of MAPs by TMT SPS-MS3 with spiked synthetic peptides, CRC vs matched NAT; details: sample S2
# Description: TMT labeling. MAP extracts were resuspended in 200 mM Hepes buffer pH 8.1. 50 μg of TMT reagent (Thermo Fisher Scientific) in anhydrous acetonitrile was added to samples as follows: CRC cell line replicates were labeled with TMT6plex (lot #UG287166) channels TMT6-126-129; Tissue samples were labeled with TMT10plex (lot #UH285228) −126 (NAT) and −127N (tumor). Samples were gently vortexed and reacted at room temperature for 1.5 hours. Samples were then quenched with 50% hydroxylamine for 30 minutes at room temperature, then were diluted with 4% FA/H2O. CRC cell line replicates and individual NAT-tumor pairs were combined. Samples were then desalted on homemade C18 membrane (Empore) columns and stored at −20° C. until injection. To quantify MAPs of interest in primary tissue samples, synthetic peptides at concentrations of 0.75 to 192 fmoles were labeled with TMT 10plex channels −128N, −128C, −129N, −129C, −130N, −130C, −131, while the NAT and CRC tissues were labeled with −126 and 127N, respectively. Note that the channel −127C was left empty to assess contamination between channels.
# Relative quantification. To relatively quantify MAPs of interest in primary tissue samples, synthetic peptides at concentrations of 10, 100, or 1000 fmol labeled with TMT 10plex-129N, 130N, and 131N, respectively, were spiked into remaining purified MAPs from NAT and CRC tissue samples labeled with TMT10plex-126 and 127N, respectively. Note that the channel TMT 10plex-127C was left empty to assess contamination. Samples were analyzed with an Orbitrap Fusion Tribrid spectrometer (Thermo Fisher Scientific) in positive ion mode with Nanoflex source at 2.4 kV. For synchronous precursor selection MS3 (SPS-MS3), full MS scans were acquired with a range of 300-1000 m/z, Orbitrap resolution of 120 000, automatic gain control (AGC) of 5.0e5, and a maximum injection time of 50 ms, using an inclusion list for the peptides of interest. A 3s top speed approach for MS2 was used in the ion trap, with an isolation window of 0.4m/z, collision induced dissociation of 35%, a ‘normal’ ion trap scan rate mode, 2.0e4 AGC target, and 50 ms maximum injection time. This was followed by the selection of eight synchronous precursor ions for MS3 acquisition, which was done with a scan range of 110-500 m/z, Orbitrap resolution of 50 000, AGC of 1.0e5, maximum injection time of 300 ms, an isolation window of 2.0m/z, and 65% HCD collision energy. LC-MS instrument was controlled using Xcalibur version 4.4 (Thermo Fisher Scientific, Inc). Error tolerances for precursor mass and fragment ions were set to 10.0 ppm and 0.5 Da, respectively. A non-specific digest mode was used. TMT10plex was set as a fixed PTM, and variable modifications included phosphorylation (STY), Oxidation (M), Deamidation (NQ), and TMT10plex STY. For quantification, PSMs were filtered to exclude those with contamination in the TMT10plex-127C channel, and to select those within the 70th intensity percentile. MS2 precursor profiles and intensity profiles of all relevant channels were manually inspected to select peptides for quantification. Intensity ratios for each peptide were calculated using the average TMT10plex-127N and TMT10plex-126 intensities of good quality PSMs.
# Experimental Design and Statistical Rationale. To effectively elucidate the MHC I immunopeptidome of colorectal cancer, 4 CRC cell lines were selected and 6 samples from human subjects consisting of both matched tumor and normal adjacent tissue (NAT) were acquired. […] Since no matched samples were available for cell lines, a pool of 6 mTEC samples was used in the creation of global cancer databases, to obtain a wide berth of approximate normal RNA expression. […] For t-tests, f-tests were performed to determine whether the dataset had significant variation; if yes, then the t-test assuming variation was used, and otherwise the t-test assuming no variation was used. […]
# [3] = test system: cancer vs matched NAT / pooled mTEC; experiment: k-mer expression of peptide coding sequences in cancer vs normal (KPHM), TSA identification pipeline; details: for MCS expression in NAT (reason for exclusion): matched NAT of the samples named in Table 7A
# Text: Identification of TSA candidates. TSA candidates were identified through a stringent TSA identification pipeline. First, MAPs underwent peptide classification in which the peptide sequence accessions were retrieved from the protein database and used to extract the nucleotide sequences of each peptide. RNA-Seq data from each cancer and normal samples were transformed into 24-nucleotide-long k-mer databases with Jellyfish 2.2.3 (using the -C option) and used to query each TSA candidate coding sequence's 24-nucleotide-long k-mer set. The number of reads fully overlapping a given peptide-coding sequence was estimated using the k-mer set's minimum occurrence (kmin), as in general, one k-mer always originates from a single RNA-Seq read. This kmin value was then transformed into several k-mers detected per 10^8 reads sequenced (kphm) using the following formula: kphm=(kmin×108) rtot, with rtot representing the total number of reads sequenced in a given RNA-Seq experiment. Peptides were kept only if their RNA coding sequences were expressed at least 10-fold higher in cancer than in normal (pooled mTEC samples for cell lines, matched NAT for tissues), and expressed <2 KPHM in normal. Subsequent filtering removed any peptides with indistinguishable isoleucine/leucine variants; a peptide with an IL variant was kept only if the most expressed variant met the above-mentioned criteria. The MCSs of the remaining peptides were quantified in RNA-seq data as described above and were kept only if their expression was <8.55 RPHM in mTECs and other normal tissues (GTEx). Genomic localization for each peptide was assigned by mapping reads containing each MCS to the reference genome (GRCh38.99) using BLAT (https://genome.ucsc.edu/cgi-bin/hgBlat, Kent W J. BLAT—the BLAST-like alignment tool. Genome Res. 2002 April; 12 (4): 656-64. PMID: 11932250). Peptides were excluded if the genomic localization was unclear or if they mapped to a hypervariable region (HLA, Ig, or T cell receptor (TCR) genes). Finally, the MS/MS spectra of the remaining candidates were manually validated. Peptides were classified as mTSAs if their amino acid sequence was different from the reference, and if the mutation was not a known germline polymorphism. Peptides were classified as aeTSAs if they were overexpressed ≥10-fold in tumor compared to normal and ≤0.2 KPHM in mTECs (and NAT in the case of tissues) and as TAAs if they were overexpressed ≥10-fold in cancer but the expression in mTECs and/or NAT was >0.2 KPHM. Ultimately, the transcript of origin of each TSA/TAA was attributed by selecting the most highly expressed peptide-overlapping transcript from the kallisto quantification file (see Database Generation section).
# Following the identification of over 30,000 unique MAPs, peptide coding sequences were filtered to select those overexpressed at least 10-fold in cancer and expressed <2rphm in pooled mTEC samples or matched NAT, for cell lines and primary samples, respectively. […] The MAP coding sequences in RNA-data were then quantified, and only those that were expressed less than 8.55rphm in mTECs and other normal tissues (GTEx) were kept. Following manual validation of the remaining peptides, peptides were classified as aberrantly expressed TSAs (aeTSAs) if they were overexpressed at least 10-fold in tumor and were expressed <0.2kphm in mTECs (and NAT in the case of tissues). […]
sequence,measurement,setting,value
"APTPARPVL (listed as Homo sapiens) [Loffler et al. 2018 vaccine candidate requiring further validation, B*07; excluded here, reference compound]",MCS expression in mTEC (reason for exclusion),"[1]; mTEC, peptide found in sample S1",expression 8.55 RPHM
"RIGGVGVEK (listed as Homo sapiens) [aeTSA, LY6G6F-LY6G6D exon frameshift, S2; predicted HLA-A*03:02]",Endogenous sample ratio,[2]; CRC vs matched NAT,1.965
same,SPS-MS3 ratio (127N/126),[2]; TMT127N (CRC) / TMT126 (NAT),6.740
same,mean expression of the peptide-coding sequence in testis (GTEx),"[1]; testis, threshold 8.55 rphm",above 8.55 rphm
"RLAEPSQMLK (listed as Homo sapiens) [Loffler et al. 2018 vaccine candidate requiring further validation, A*03; excluded here]",MCS expression in NAT (reason for exclusion),[3],expression > 2 KPHM
"RLASRPLLL (listed as Homo sapiens) [Loffler et al. 2018 vaccine candidate, B*07; excluded here]",FC between cancer and NAT (reason for exclusion),[3]; sample S5,FC < 10
"SPKATGVFTTL (listed as Homo sapiens) [Loffler et al. 2018 vaccine candidate requiring further validation, B*07; excluded here]",MCS expression in NAT (reason for exclusion),[3],expression > 2 KPHM
SVLTQPPSV (listed as Homo sapiens) [excluded here],MCS expression in NAT (reason for exclusion),[3],expression > 2 KPHM
"YRNSYEIEY (listed as Homo sapiens) [Loffler et al. 2018 vaccine candidate, C*07; excluded here]",MCS expression in NAT (reason for exclusion),[3],expression > 2 KPHM
